Experimental data taken from patent publication US20160024083A1, “COMPOUNDS AND METHODS FOR TREATING CANCERS” (HEALTH RESEARCH, INC., priority 2013, published 2016).
For at least one compound, name, drawing or mass did not settle the structure.

Assay: Tissue drug concentrations (tumor, liver, plasma) in treated CWR22R tumor-bearing mice
Assay type: in vivo
Settings: after 5 IP or IV injections
Procedure: We tested these compounds in an in vivo efficacy experiment using model of CRPC in SCID mice, CWR22R. Two compounds, PLA1079 and 1125, which were synthesized in the amount of 500 mg were tested in full scale experiment with either 5 IV daily injections or 10 IP daily injections. After 5 IP or IV injections intra-tumor concentration of the compounds were measured in few mice from this experiment.
Two other compounds, PLA1148 and 1098 (PK testing in FIGS. 8 and 9) were tested in a small scale efficacy experiment. Upon PK testing of the compound PLA1148 one mouse was injected twice with 10 min interval. However the concentration of the drug in plasma of this mouse was not twice, but >4 times higher than in mice injected once. […] It was decided to utilize this observation in an attempt to get higher plasma and tumor concentration of both compounds. Therefore in the pilot efficacy experiment in the same model of CWR22R cells mice were treated with 2 IP injections with 10 minute interval. Treatment with PLA1098 was carried out for two days. […] However this is so far the highest concentration found in tumor. […]
LC50 data of in vitro 72 hours cytotoxicity assay are included in this table for comparison.

SMILES: CCCn1c2ccccc2c2cc(-c3nnco3)ccc21 [PLA1079]
- intra-tumor concentration relative to LC50% in vitro: significantly below LC50%
